Experiment [1] relates to SARS-CoV-2 -1 PRF reporter mCherry-FSE-GFP(-1). Briefly: mCherry (red) intensity as percent of control; higher = higher upstream reporter expression. As to conditions: 10 µM; 24 h; HEK293T.
Experiment [2] has the same test system. Briefly: percent effect, decrease of GFP/mCherry ratio (-1 PRF reporter) relative to controls; higher = stronger frameshift inhibition. Particulars: 10 µM; 24 h; HEK293T.

Where a name gives a salt, the structure may show the parent alone. The list shows a part of the results. Single values are uncertain here, since repeats match poorly.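 HEK293T cells were given each compound shortly before transfection with a reporter in which red mCherry is followed by the SARS-CoV-2 frameshift element and then GFP in the −1 frame, so GFP appears only after frameshifting.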

`COc1ccccc1OCCOCCOCCN1CCCCC1` [guaiapate]: in experiment [1], the mCherry was 94.7%. In addition, in experiment [2], the percent effect was -3.54%.
On to `c1ccc2oc(-c3ccncc3)cc2c1` [pyridarone], for which, in experiment [1], the mCherry worked out at 95.3%. Further, the percent effect in experiment [2] was -0.57%.
As to `CN1CCN(C(c2ccccc2)c2ccccc2)CC1` [cyclizine], the mCherry in experiment [1] stood at 108%. For the same compound, the percent effect in experiment [2] is -1.09%.
Taken in the same sequence, the figures for `Cc1cc(-n2c(=O)[nH]c(=O)n(C)c2=O)ccc1Oc1ccc(SC(F)(F)F)cc1` [toltrazuril] were 105% and -0.616%.
Taken in the same sequence, the figures for `Clc1ccc(C(Cn2ccnc2)OCc2csc3c(Cl)cccc23)c(Cl)c1` (stereo unspecified) [sertaconazole] were 94.1% and -2.45%.
Regarding `CC(N/C(=N\C#N)Nc1ccncc1)C(C)(C)C` (stereo unspecified) [Pinacidil], the mCherry in experiment [1] worked out at 83.8%. The percent effect in experiment [2] was -0.366%.
Regarding `O=c1[nH]cnc2c([C@@H]3N[C@H](CO)[C@@H](O)[C@H]3O)c[nH]c12` [forodesine], in experiment [1], the mCherry came out at 102%. In addition, in experiment [2], the percent effect was determined as 1.02%.
In experiment [1], `C[N+](C)(C)CCOP(=O)(O)OP(=O)([O-])OC[C@H]1O[C@@H](n2ccc(N)nc2=O)[C@H](O)[C@@H]1O` [citicoline] registered a mCherry of 108%. Further, in experiment [2], the percent effect came out at 1.34%.
Take `C[C@H](Cc1ccc(O)c(O)c1)[C@@H](C)Cc1ccc(O)c(O)c1` [Masoprocol]: the mCherry in experiment [1] was found to be 81.2%. The percent effect in experiment [2] is -2.94%.
For `O=C(OOC(=O)c1ccccc1)c1ccccc1` the same measures were 101% and -4.79%.
In experiment [1], `C[C@H]1COc2c(C3(N)CC3)c(F)cc3c(=O)c(C(=O)O)cn1c23` yielded a mCherry of 144%. Besides, in experiment [2], the percent effect is -1.41%.
On to `NC(=O)c1cnccn1` [pyrazinamide], for which the mCherry in experiment [1] came out at 90.8%. For the same compound, in experiment [2], the percent effect was -2.6%.
Regarding `Cc1c(O)cccc1C(=O)N[C@@H](CSc1ccccc1)[C@H](O)CN1C[C@H]2CCCC[C@H]2C[C@H]1C(=O)NC(C)(C)C` [Nelfinavir mesylate], in experiment [1], the mCherry is 78.5%. Also, the percent effect in experiment [2] was -4.38%.

These data come from the supplement of paper PMC8256030.
